Data taken from paper PMC5833388.
These are yes or no findings as the source states them, for the method shown. In cells and extracts the contact can be indirect. Some results given as binding are weak or reduced against the parent protein; the word gives no strength.

Chains of the proteins cited; added tags and fusions are not shown.
UniProt Q62388: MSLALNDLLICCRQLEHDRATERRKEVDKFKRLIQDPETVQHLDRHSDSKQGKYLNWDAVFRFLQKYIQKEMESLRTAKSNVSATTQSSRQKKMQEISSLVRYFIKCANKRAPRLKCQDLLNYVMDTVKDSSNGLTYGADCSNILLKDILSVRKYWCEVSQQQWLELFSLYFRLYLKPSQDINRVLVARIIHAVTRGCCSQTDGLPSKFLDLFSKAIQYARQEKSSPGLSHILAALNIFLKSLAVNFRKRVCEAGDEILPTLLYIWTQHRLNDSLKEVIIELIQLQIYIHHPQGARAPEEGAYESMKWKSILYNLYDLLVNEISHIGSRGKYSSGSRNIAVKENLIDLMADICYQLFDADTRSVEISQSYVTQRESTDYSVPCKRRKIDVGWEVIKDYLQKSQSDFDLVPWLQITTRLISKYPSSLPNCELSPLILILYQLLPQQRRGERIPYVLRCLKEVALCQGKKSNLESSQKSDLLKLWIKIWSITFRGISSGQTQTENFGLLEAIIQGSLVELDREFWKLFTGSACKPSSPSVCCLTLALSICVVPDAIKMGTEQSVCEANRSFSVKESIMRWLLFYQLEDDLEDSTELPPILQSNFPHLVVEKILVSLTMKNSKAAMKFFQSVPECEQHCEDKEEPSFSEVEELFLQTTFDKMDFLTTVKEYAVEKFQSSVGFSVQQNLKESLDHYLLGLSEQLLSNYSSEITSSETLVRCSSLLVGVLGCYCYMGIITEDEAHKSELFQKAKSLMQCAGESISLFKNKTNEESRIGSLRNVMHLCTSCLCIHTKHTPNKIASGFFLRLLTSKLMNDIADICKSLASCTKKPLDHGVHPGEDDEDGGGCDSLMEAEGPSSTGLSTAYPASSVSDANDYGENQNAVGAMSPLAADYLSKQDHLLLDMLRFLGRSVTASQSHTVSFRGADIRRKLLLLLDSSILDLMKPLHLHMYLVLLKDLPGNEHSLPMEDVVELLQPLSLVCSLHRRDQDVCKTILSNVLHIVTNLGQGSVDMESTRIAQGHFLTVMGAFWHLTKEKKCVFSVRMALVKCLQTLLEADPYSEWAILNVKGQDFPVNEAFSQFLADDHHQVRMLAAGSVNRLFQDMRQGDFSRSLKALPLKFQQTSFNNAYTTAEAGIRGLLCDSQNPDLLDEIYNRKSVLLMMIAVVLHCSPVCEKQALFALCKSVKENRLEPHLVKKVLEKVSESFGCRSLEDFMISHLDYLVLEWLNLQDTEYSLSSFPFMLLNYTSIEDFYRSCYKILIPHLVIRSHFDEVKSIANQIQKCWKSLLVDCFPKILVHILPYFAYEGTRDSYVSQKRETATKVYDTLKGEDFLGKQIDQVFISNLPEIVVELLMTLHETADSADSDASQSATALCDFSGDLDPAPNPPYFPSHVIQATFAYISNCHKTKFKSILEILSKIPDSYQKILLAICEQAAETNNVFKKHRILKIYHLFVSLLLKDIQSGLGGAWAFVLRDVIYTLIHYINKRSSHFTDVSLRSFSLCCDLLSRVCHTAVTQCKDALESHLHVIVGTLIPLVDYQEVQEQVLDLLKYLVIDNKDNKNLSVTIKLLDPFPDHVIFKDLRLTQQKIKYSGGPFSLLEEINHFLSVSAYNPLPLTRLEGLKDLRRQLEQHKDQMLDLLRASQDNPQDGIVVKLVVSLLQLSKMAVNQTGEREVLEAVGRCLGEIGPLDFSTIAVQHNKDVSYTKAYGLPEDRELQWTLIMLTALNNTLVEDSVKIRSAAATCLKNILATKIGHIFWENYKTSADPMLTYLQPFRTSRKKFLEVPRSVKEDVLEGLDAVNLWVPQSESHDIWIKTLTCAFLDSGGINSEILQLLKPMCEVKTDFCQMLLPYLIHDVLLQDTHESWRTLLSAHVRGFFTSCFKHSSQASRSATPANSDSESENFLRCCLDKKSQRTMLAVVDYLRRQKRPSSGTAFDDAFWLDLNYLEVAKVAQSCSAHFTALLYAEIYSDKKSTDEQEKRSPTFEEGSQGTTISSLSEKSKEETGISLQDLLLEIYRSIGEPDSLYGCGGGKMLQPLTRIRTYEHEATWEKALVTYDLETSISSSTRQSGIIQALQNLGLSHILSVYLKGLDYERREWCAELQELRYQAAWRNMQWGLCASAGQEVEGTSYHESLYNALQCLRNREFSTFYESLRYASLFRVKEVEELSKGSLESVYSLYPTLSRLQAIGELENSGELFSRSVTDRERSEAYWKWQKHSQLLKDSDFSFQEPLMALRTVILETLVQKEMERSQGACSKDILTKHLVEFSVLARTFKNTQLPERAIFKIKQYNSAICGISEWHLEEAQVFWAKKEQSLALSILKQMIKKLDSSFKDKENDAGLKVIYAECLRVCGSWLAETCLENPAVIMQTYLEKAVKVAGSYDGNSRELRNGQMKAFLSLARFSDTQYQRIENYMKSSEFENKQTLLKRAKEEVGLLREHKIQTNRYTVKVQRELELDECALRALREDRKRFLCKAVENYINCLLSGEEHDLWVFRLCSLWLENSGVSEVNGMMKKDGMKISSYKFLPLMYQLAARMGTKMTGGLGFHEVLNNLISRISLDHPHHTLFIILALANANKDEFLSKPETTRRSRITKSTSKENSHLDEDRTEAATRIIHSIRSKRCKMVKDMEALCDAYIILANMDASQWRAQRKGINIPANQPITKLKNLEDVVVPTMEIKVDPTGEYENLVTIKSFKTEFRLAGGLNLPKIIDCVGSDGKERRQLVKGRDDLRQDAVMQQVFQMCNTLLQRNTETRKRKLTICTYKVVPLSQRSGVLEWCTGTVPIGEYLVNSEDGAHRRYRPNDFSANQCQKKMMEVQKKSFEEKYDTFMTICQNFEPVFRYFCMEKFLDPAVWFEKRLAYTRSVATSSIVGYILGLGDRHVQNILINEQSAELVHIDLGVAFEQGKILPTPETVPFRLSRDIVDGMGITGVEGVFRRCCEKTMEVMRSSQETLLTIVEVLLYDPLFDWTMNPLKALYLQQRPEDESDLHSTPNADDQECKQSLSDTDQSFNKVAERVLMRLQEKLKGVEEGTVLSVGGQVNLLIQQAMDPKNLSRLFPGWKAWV

Target: T1, Nbs1 (mouse (endogenous in MEFs)) (UniProt Q9R207)
T1 sequence: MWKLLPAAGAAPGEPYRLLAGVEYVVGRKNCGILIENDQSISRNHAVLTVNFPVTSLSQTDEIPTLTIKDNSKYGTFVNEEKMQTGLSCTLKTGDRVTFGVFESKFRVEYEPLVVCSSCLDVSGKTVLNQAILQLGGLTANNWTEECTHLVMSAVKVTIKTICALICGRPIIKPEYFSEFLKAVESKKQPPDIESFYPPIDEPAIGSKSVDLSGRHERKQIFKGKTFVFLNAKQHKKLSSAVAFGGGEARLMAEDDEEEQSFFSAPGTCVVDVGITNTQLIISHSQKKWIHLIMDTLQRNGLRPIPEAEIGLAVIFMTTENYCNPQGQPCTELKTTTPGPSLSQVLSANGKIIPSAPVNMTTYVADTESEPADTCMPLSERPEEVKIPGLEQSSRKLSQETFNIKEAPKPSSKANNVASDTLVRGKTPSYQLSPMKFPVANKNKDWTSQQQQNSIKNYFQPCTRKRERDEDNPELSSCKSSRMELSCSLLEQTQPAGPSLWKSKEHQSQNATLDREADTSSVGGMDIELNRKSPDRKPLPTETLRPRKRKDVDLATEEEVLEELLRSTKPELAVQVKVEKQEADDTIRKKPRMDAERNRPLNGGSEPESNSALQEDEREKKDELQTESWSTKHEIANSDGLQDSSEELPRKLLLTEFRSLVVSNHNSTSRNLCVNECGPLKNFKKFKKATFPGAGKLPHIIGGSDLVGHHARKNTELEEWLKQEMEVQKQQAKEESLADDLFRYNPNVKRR
Experiment: co-IP; endogenous proteins in lysates of Rps27l+/+;Trp53+/- and Rps27l-/-;Trp53+/- MEFs, untreated or irradiated at 5 Gy and harvested at indicated time points; immunoprecipitation with Mdm2 or Nbs1 antibody, then immunoblot

binding: binds
Substance: Atm (from UniProt Q62388 1-3066)
